Experimental findings from patent US20230235075A1 are described below.

Protein sequences, listed by entry. Tags and fused reporters are not part of them. Lines headed by an entry give the natural chain unless they say otherwise; changes in a name come on top. Residues count along the entry.
UniProt Q9NPY3, residues 22-580: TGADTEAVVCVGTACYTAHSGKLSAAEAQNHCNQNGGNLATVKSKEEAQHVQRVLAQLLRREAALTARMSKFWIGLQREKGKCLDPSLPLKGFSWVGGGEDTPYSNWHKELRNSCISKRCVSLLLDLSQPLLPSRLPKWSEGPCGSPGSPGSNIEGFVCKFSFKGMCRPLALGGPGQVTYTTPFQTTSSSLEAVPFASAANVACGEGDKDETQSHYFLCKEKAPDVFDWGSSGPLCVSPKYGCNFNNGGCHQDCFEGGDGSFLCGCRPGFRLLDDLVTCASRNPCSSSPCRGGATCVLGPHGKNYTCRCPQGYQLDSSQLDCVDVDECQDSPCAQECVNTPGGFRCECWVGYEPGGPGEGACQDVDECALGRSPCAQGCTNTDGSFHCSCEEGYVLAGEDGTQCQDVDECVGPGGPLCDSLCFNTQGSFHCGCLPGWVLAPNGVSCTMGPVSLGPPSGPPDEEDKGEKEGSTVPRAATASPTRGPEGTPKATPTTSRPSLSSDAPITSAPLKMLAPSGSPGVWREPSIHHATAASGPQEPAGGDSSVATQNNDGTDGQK

Results are given in words; binding and its absence hold for the method and conditions named. Some binding calls cover weakened binding; strength is not graded here.

Assay [1] addresses cynomolgus CD93 protein (made in-house) (cynomolgus). Kind of assay: summary table, column 'Cyno Cross (EEISA)', ELISA. For orientation: In an ELISA, binding on a coated surface is turned into a signal by an enzyme label.
Assay [2] shares this target. The experiment in a line: BLI (Octet QKe), biotinylated cynomolgus CD93 on streptavidin sensors. In general terms: In BLI a coated tip is dipped into the sample, and binding shifts an interference pattern.
For assay [3] the target is unchanged. The experiment in a line: BLI (Octet QKe), biotinylated CD93 on streptavidin sensors.
The target of assay [4] is Human CD93 recombinant protein (Sino Biological Inc, Catalog #12589-H08H) (human) (UniProt Q9NPY3). Kind of assay: ELISA, His-tagged human CD93 coated at 1 µg/mL, anti-human Fc HRP.

B1: 16G9 (antibody, V domains shown)
VH: EVQLQQSGPELVKPGASVKMSCKASGYTFTDYYMNWVKQSHGKSLEWIGRVNPNNGGKTYNQKFKGKATLTVDKSLSTAYMQLNSLTSEDSAVYYCARWRLRPVDYGMDYWGQGTSVTVSS
VL: DIVLTQSPASLAVSLGQRATISCRASQSVSTSSYSYMHWYQQKPGQPPKLLIKYASNLESGVPARFSGSGSGTDFTLNIHPVEEEDTATYYCQHSWEIPFTFGSGTKLEIK
For B1, the binding result in assay [1] and in assay [2] was “binds” each time.

B2: 5H9 (antibody, IgG2a, V domains shown)
VH: QVQLQQSGPDLVKPGASVKISCKASGYAFSTYWMNWVKQRPGKGLEWIGRIFPGDGDANYNGKFKGKATLTADKSSSTAYMQLSSLTSEDSAVYFCTRTGAAYDFDPFPYWGQGTLVTVSA
VL: DIVMTQAAFSNPVTLGTSASISCSSSKSLLHSNGVTYLYWYLQRPGQSPQLLIYRMSNLASGVPDRFSGSGSGTDFTLRISRVEAEDVGIYYCAQMLERPFTFGSGTKLEIK
Regarding B2, the binding result in assay [1] and in assay [2] was “binds” throughout.

B3: 17A7 (antibody, V domains shown)
VH: QVQLQQSGPELVKPGASVKISCKGSGYAFSTYWMNWVKQRPGKGLEWIGRIFPGDGDTDYDGKFKGKATLTADKSSNTAYMQLSSLTSEDSAVYFCARTGAAYEFDPFPYWGQGTLVTVSA
VL: DIVMTQAAFSNPVTLGTSASISCSSTKSLLHSSGITYLYWYLQRPGQSPQLLIYRMSNLASGVPDRFSGSGSGTDFTLRISRVEAEDVGVYYCAQMLERPFTFGSGTKLEIK
Consider B3, for which the binding entry in assay [1] and in assay [2] was “binds” throughout.

B4: 19E12 (antibody, V domains shown)
VH: QVQLQQSGAELVRPGASVKLSCKASGYTFTDYEMHWVRQTPVHGLEWIGGIDPETGGTAYNQKFKGKATLTADKSSSTAYMELRSLTSEDSAVYYCTRGAWFAYWGQGTLVTVSA
VL: QAVVTQESALTTSPGETVTLTCRSSTGAVTTSNSANWVQEKPDHLFTGLIGGTNNRAPGVPARFSGSLIGDKAALTITGAQTEDEAIYFCALWYNNHFVFGGGTKLTVL
Regarding B4, the binding result in assay [1] and in assay [2] was “binds” each time.

B5: 10B1 (antibody, V domains shown)
VH: QVQLKQSGPGLVQPSQSLSITCTVSDFSLSSFGVNWVRQPPGKGLEWLGVIWSGGSTDYNVAFISRLSISKDNSKSQVFFKMNNLQADDTAIYYCARNWRYDGYFYAMDYWGQGTSVTVSS
VL: DIVMTQSQKFMSTSTGDRVSVTCKASQNVGTNVAWYQQKPGQSPKALIYSASYRFIGVPDRFTGSGSGTDFTLTITNVQSEDLAEYFCQQYNRNPITFGSGTKLEIK
Regarding B5, the binding entry in assay [1] and in assay [3] was “binds” in each case.

B6: 17B10 (hybridoma) (antibody, V domains shown)
VH: QVQLQQSGPELVKPGASVKISCKASGYAFSSYWLNWVKQRPGKGLEWFGRIYPGDGDTDYNGKFKGKATLTADKSSSTAYMQLRSLTSEDSAVYFCVRGDGYWAMDYWGQGTSVTVSS
VL: DIVMTQAAFSNPVTLGTSASISCRFSKSLLHSNGITYLYWYLQKPGQSPQLLIYQMSNLASGVPDRFSSSGSGTDFTLRISRVEAEDVGVYYCAQNLELPWTFGGGTKLEIK
For B6, the binding entry in assay [1] and in assay [2] was “binds” throughout.

B7: 16B6 (antibody, V domains shown)
VH: QVQLQQSGPELVKPGASVKISCKASGYAFSRSWMNWVKQRPGKGLEWIGWIYPGDGDTNYNGKFKGKATLTADKSSSTAYMQLSSLTSEDSAAYFCARSATLPYWYFDVWGAGTTVTVSS
VL: DIKMTQSPSSMYASLGERVTITCKASQDIKSYLSWYQQKPWKSPKTLIYYATNLADGVPSRFSGSGSGQDYSLTISSLGSDDTATYYCLQHVESPWTFGGGTKLEIK
In the case of B7, the binding entry in assay [1] and in assay [2] was “binds” throughout.

B8: 17E6 (antibody, V domains shown)
VH: EVQLQQSGPELVKPGASVKMSCKASGYTFTSYVIHWVKQKPGQGLEWIGYINPYSDYTQYNEKFKGKATLTSDKSSSTAYMELSSLTSEDSAVYSCARRADGNPYAMDYWGQGTSVTVSS
VL: DIVMTQSHKFMSTSVGDRVSTTCKASQDVSTAVVWYQQKPGQSPKLLIYSASYRYTGVPDRFTGSGSGTDFTFTITSVQAEDLAVYYCQQHYSTPFTFGSGTKLEIK
Turning to B8, the binding result in assay [1] and in assay [2] was “binds” in each case.

B9: 20C7 (antibody, V domains shown)
VH: EVQLQQSGPELVNPGASVKMSCKASGYTFTAYVMHWVKQKPGQGLEWIGYIFPYNDGTEYNEKFKGKATLTSDKSSSTAYMELSSLTSEDSAVYYCARRTDGNPYTMDYWGQGTSVTVSS
VL: DIVMTQSHKFMSTSVGDRVSITCKASQDVSTAVAWYQQKPGQSPKLLIHSASYRYTGVPDRFTGRGSGTDFTFTISSVQAEDLAVYYCQQHYSTPFTFGSGTKLEIK
For the molecule B9, the binding entry in assay [1] and in assay [2] was “binds” throughout.

B10: 7F3-hIgG1 (antibody, V domains shown)
VH: QVQLQQSGADLVRPGASVKLSCKASGYTFTDYEMHWVKQTPVYGLEWIGGIDPETGDTAYNQNFKGKATLTADKSSSAAYMELRSLTSEDSAVYYCTNYGNLYYYAMDYWGQGTSVTVSS
VL: ENVLTQSPAIMSASPGEKVTMTCRASSSVSSSYLHWYQQKSGASPKLWIYSTSNLAFGVPARFSGSGSGTSYSLTISSVEAEDAATYYCQQYSGYPLTFGSGTKLEIK
As to B10, the binding entry in assay [4] is “binds”.

B11: 7F3 (hybridoma) (antibody, IgG1, V domains shown)
VH: QVQLQQSGADLVRPGASVKLSCKASGYTFTDYEMHWVKQTPVYGLEWIGGIDPETGDTAYNQNFKGKATLTADKSSSAAYMELRSLTSEDSAVYYCTNYGNLYYYAMDYWGQGTSVTVSS
VL: ENVLTQSPAIMSASPGEKVTMTCRASSSVSSSYLHWYQQKSGASPKLWIYSTSNLAFGVPARFSGSGSGTSYSLTISSVEAEDAATYYCQQYSGYPLTFGSGTKLEIK
Take B11: the binding entry in assay [1] and in assay [3] was “binds” throughout.

B12: 12H4 (antibody, V domains shown)
VH: EVQLQQSGPELVKPGASVKVSCKASGYTFTDYYIHWVKQRPGQGLEWIGEIYPGSDDAYYNEKFKGKATLTADKSSSTAYMQLSSLTSEDSAVYFCTRETTATAYWGQGTLVTVSA
VL: QIVLTQSPAIMSASPGEKVTITCSASSSVSLIYWFQQKPGTSPKLWIYSTSNLASGVPARFSGSGSGTSYSLTISRMEAEDAATYYCQQRSGYPPTFGGGTKLEIK
On to B12, for which the binding entry in assay [1] and in assay [2] was “binds” each time.

B13: 19B5 (antibody, V domains shown)
VH: DVNLVESGGGLVKLGGSLKLSCAASGFTFSNYYMSWVRQSPEKRLEWVATISNNGDSTYYLDTVKGRFTISRDSAENTLYLQMSSLISEDTAVYYCTRVGTGFTYWGQGTLVTVSA
VL: DIVLTQSPATLSVTPGDSVSLSCRASQSINNYLHWYQQRSHESPRLLIKFASQSISDIPSRFSGSGSGTDFTLSINSIETEDFGMYFCQQSNSWPLTFGAGTKLELK
As to B13, the binding result in assay [1] and in assay [2] was “binds” each time.
